Here are results for one molecule from doi:10.1101/2021.05.17.443835.

Sequences of proteins named here, by UniProt entry; tags and fusion partners are left off.
UniProt P26039, whole entry: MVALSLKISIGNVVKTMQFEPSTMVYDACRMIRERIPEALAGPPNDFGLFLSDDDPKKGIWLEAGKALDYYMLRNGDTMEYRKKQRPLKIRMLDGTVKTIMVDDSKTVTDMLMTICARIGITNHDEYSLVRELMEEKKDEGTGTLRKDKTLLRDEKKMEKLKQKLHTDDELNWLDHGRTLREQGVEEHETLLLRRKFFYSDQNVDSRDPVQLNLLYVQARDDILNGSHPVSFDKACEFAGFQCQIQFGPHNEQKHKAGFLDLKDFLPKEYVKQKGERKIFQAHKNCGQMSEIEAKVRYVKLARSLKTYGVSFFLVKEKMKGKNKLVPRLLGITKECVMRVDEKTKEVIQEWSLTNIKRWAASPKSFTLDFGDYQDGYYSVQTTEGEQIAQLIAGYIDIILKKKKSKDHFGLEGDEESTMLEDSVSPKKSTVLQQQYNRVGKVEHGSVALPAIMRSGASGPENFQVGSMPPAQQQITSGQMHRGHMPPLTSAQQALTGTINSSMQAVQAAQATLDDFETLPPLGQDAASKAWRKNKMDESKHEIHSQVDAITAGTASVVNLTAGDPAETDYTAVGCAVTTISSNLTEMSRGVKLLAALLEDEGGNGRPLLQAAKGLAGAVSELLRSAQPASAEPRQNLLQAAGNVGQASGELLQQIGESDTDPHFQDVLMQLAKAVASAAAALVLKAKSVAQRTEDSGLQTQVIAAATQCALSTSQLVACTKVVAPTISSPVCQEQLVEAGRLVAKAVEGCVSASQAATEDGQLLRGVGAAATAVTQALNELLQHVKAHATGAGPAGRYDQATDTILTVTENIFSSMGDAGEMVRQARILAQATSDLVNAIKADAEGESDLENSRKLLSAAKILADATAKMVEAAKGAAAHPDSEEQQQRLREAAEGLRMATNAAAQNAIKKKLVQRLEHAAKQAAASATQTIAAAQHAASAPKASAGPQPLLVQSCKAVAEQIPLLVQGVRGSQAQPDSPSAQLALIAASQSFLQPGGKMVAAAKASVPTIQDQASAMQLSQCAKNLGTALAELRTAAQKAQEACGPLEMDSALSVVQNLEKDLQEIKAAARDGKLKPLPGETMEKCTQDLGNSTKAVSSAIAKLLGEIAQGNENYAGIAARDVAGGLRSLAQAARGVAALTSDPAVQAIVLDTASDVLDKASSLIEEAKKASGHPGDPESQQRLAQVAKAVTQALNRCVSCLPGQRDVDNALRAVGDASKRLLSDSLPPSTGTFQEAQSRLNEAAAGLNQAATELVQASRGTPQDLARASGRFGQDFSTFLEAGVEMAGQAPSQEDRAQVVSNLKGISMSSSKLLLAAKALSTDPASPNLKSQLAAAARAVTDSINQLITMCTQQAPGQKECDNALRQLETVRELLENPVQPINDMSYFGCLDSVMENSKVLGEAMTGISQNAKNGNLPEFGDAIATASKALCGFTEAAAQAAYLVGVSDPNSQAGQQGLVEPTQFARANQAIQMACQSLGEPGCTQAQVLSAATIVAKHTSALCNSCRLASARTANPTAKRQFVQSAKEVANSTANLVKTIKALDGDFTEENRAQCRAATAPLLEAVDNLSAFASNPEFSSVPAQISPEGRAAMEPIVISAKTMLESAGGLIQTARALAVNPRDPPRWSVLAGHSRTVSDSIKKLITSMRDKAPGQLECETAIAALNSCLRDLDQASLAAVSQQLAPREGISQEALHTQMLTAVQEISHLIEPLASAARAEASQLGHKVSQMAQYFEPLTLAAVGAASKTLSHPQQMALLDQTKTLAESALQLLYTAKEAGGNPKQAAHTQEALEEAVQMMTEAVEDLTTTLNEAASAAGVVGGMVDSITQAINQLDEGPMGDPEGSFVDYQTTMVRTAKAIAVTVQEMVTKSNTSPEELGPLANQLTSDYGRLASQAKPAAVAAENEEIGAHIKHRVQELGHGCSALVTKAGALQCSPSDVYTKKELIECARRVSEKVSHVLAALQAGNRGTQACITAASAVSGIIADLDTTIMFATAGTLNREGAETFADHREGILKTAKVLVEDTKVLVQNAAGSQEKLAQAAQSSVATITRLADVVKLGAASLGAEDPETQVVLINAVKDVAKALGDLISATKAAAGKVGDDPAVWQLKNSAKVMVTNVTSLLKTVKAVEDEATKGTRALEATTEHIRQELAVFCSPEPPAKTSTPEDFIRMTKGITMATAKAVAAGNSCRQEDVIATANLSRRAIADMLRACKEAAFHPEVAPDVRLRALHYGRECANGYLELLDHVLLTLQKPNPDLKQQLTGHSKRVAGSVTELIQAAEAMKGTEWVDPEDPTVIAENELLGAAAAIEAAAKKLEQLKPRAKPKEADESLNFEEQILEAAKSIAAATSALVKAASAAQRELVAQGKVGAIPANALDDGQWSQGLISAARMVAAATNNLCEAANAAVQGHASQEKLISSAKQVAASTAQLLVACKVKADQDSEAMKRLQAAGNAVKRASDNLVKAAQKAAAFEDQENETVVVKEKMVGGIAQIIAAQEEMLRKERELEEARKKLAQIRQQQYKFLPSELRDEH

Results are given in words; binding and its absence hold for the method and conditions named. Binding seen in cells or lysates may run through a third protein. Here binding means that the protein was enriched with, or labelled near, the bait; the list need not be complete.

The test deals with Talin-13X-Linker-BioID2-HA (UniProt P26039). Nature of the test: proximity labelling.

B1: Zyxin (protein, UniProt Q15942 1-572)
chain: MAAPRPSPAISVSVSAPAFYAPQKKFGPVVAPKPKVNPFRPGDSEPPPAPGAQRAQMGRVGEIPPPPPEDFPLPPPPLAGDGDDAEGALGGAFPPPPPPIEESFPPAPLEEEIFPSPPPPPEEEGGPEAPIPPPPQPREKVSSIDLEIDSLSSLLDDMTKNDPFKARVSSGYVPPPVATPFSSKSSTKPAAGGTAPLPPWKSPSSSQPLPQVPAPAQSQTQFHVQPQPQPKPQVQLHVQSQTQPVSLANTQPRGPPASSPAPAPKFSPVTPKFTPVASKFSPGAPGGSGSQPNQKLGHPEALSAGTGSPQPPSFTYAQQREKPRVQEKQHPVPPPAQNQNQVRSPGAPGPLTLKEVEELEQLTQQLMQDMEHPQRQNVAVNELCGRCHQPLARAQPAVRALGQLFHIACFTCHQCAQQLQGQQFYSLEGAPYCEGCYTDTLEKCNTCGEPITDRMLRATGKAYHPHCFTCVVCARPLEGTSFIVDQANRPHCVPDYHKQYAPRCSVCSEPIMPEPGRDETVRVVALDKNFHMKCYKCEDCGKPLSIEADDNGCFPLDGHVLCRKCHTARAQT
For the molecule B1, the binding entry was “binds”.
